Laboratory results: the supplement of paper PMC3682954
Where a name gives a salt, the structure may show the parent alone. ± gives the standard deviation of the averaged measurements. The list shows a part of the results. Many values rest on one well or one pass, so single values are uncertain.

Test system: RAW 264.7
Experiment: HMGB1-induced TNF-alpha production relative to HMGB1-stimulated control; higher = more TNF-alpha secretion (less inhibition)
Details: stimulus: HMGB1 5 ug/ml, 18 h
[1] = compound concentration: 1 ug/ml

Structure (SMILES)	HMGB1-induced TNF-alpha production [1]	HMGB1-induced TNF-alpha production (compound concentration: 3 uM)
CC1(C)O[C@@H]2[C@H](O1)[C@@H](CO)O[C@H]2n1ccc(=O)[nH]c1=O [2',3'-O-Isopropylideneuridine]	73.9%	–
COC(=O)c1ccccc1O [Methyl salicylate]	–	85.4%
COc1ccc2c(c1)N(C[C@H](C)CN(C)C)c1ccccc1S2 [Methotrimeprazine maleat salt]	–	94.9%
CC[C@H](CC[C@@H](C)[C@H]1CC[C@H]2[C@@H]3CC=C4C[C@@H](O)CC[C@]4(C)[C@H]3CC[C@]12C)C(C)C [beta-Sitosterol]	72.9%	–
CCCN(CCC)C(=O)C(CCC(=O)O)NC(=O)c1ccccc1 (stereo unspecified)	–	86%
CCCN(CCC)C(=O)C(CCC(=O)O)NC(=O)c1ccccc1 (stereo unspecified) [Proglumide]	–	99.7 ± 17%
CN1CCc2ccccc2Cc2[nH]c3ccccc3c2CC1	–	104%
CC(C)(Sc1cc(C(C)(C)C)c(O)c(C(C)(C)C)c1)Sc1cc(C(C)(C)C)c(O)c(C(C)(C)C)c1 [Probucol]	–	67.5%
CC(C)(Sc1cc(C(C)(C)C)c(O)c(C(C)(C)C)c1)Sc1cc(C(C)(C)C)c(O)c(C(C)(C)C)c1	–	105%
Nc1ccc(-c2nc3ccc(-c4nc5ccc(N)cc5[nH]4)cc3[nH]2)cc1	–	94.5%
CS(=O)(=O)CCNCc1ccc(-c2ccc3ncnc(Nc4ccc(OCc5cccc(F)c5)c(Cl)c4)c3c2)o1 [Lapatinib]	–	73.7%
CS(=O)(=O)CCNCc1ccc(-c2ccc3ncnc(Nc4ccc(OCc5cccc(F)c5)c(Cl)c4)c3c2)o1 [Lapatinib ditosylate]	–	104%
Cn1ccnc1S	–	101 ± 4.9%
Cn1ccnc1S [Methimazole]	–	81.7 ± 11%
Nc1c(Br)cc(Br)cc1CN[C@H]1CC[C@H](O)CC1 [Ambroxol hydrochloride]	–	52.4%
Nc1c(Br)cc(Br)cc1CN[C@H]1CC[C@H](O)CC1 [Ambroxol]	–	90.9%
Nc1c(Br)cc(Br)cc1CN[C@H]1CC[C@H](O)CC1	–	83.4%
Oc1ccc(Cl)c2cccnc12	–	71.6%
CC(=O)NO	–	77.5%
N[C@@H](Cn1ccc(=O)c(O)c1)C(=O)O [L-Mimosine from Koa hoale seeds]	–	111%
N[C@@H](Cn1ccc(=O)c(O)c1)C(=O)O [L-Mimosine]	64.8%	–
CN(C)CC/C=C1\c2ccccc2CSc2ccccc21 [Dosulepin hydrochloride]	–	74.3%
CN1CCCN=C1COC(=O)C(O)(c1ccccc1)C1CCCCC1 (stereo unspecified)	–	73%
CC(C)(Oc1ccc(Cl)cc1)C(=O)O	–	77.4%
CC(C)(Oc1ccc(Cl)cc1)C(=O)O [Clofibric acid]	–	79.5%
CCCCCCCCCCC[C@@H](C[C@@H]1OC(=O)[C@H]1CCCCCC)OC(=O)[C@H](CC(C)C)NC=O	–	88.1 ± 22%

Single records, from the list above. Values in the order: HMGB1-induced TNF-alpha production [1] | HMGB1-induced TNF-alpha production (compound concentration: 3 uM)
CC1(C)O[C@@H]2[C@H](O1)[C@@H](CO)O[C@H]2n1ccc(=O)[nH]c1=O [2',3'-O-Isopropylideneuridine] as listed: 73.9% | –
CC(=O)NO as listed: – | 77.5%
